This note sets out measurements from US20220008500A1, “COMPOSITIONS AND METHODS FOR TREATING HEART FAILURE” (The George Washington University, priority 2017, published 2022).

This data set is described as follows: Measurement of plasma OXT (Oxytocin ELISA Kit). It counts as in vivo, Sprague-Dawley rats. Particulars: CNO 1 mg/kg IP daily. (In general: ELISA stands for enzyme-linked immunosorbent assay.)

The structures appear in SMILES notation.

Take `C[N+]1([O-])CCN(C2=Nc3cc(Cl)ccc3Nc3ccccc32)CC1` [CNO, clozapine N-oxide]: the “Plasma OXT compared between groups” value is recorded as “not different between any group” (TAC rats with DREADDs) and “not different between any group” (rats without TAC (OXT NORM)).
